# Laboratory results from publication PMC8820732.
# By UniProt entry, the sequences of proteins in these tests, tags left out.
# UniProt A0R196: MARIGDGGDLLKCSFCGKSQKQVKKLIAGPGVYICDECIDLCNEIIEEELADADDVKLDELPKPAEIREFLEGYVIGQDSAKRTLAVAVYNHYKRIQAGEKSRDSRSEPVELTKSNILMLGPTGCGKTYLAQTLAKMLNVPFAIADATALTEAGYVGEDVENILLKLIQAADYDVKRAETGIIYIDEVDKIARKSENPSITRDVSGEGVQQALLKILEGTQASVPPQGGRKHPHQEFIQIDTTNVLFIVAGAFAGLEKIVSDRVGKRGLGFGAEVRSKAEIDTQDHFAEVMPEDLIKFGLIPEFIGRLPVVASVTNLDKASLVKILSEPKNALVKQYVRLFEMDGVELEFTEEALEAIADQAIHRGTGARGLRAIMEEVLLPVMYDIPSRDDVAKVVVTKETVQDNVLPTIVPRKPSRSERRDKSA
# UniProt A0R574: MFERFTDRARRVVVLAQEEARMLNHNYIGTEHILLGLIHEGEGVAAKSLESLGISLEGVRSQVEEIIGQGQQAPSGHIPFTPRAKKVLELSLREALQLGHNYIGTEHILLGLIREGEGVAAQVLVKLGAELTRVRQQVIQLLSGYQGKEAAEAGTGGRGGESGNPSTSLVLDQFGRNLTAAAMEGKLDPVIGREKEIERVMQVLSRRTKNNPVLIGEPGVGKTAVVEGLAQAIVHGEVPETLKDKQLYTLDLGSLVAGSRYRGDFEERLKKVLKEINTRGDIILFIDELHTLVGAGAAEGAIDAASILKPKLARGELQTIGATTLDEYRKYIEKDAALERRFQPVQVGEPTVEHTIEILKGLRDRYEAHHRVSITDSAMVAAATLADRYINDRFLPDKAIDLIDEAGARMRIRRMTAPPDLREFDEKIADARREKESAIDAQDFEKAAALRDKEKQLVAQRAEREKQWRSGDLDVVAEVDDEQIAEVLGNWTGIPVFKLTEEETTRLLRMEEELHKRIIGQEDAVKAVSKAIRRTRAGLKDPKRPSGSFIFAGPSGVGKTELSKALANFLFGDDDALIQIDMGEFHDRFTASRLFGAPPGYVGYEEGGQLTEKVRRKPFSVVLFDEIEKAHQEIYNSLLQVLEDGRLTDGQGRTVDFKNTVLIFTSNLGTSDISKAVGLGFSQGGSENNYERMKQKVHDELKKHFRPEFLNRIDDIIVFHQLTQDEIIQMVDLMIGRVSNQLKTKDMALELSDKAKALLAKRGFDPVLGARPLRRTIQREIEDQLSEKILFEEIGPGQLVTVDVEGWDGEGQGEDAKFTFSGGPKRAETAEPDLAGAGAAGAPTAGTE
# These are yes or no findings as the source states them, for the method shown. In cells and extracts the contact can be indirect. Some results given as binding are weak or reduced against the parent protein; the word gives no strength.
# B1: CarD (protein, UniProt A0R561 1-162)
# chain: MIFKVGDTVVYPHHGAALIEAIETRTIKGEQKEYLVLKVAQGDLTVRVPADNAEYVGVRDVVGQEGLDKVFQVLRAPHTEEPTNWSRRYKANLEKLASGDVNKVAEVVRDLWRRDQERGLSAGEKRMLAKARQILVGELALAENTDDAKAETILDEVLAAAS
# Key:
# His x 6 tagged ClpX = His x 6 tagged ClpX (UniProt A0R196); assay: pull-down; ClpC1-His or ClpX-His (pre-incubated with 1 mM ATP for 1 hr) bound to Ni-NTA resin, incubated with lysate of exponential mc2155 cells at room temperature for 30 min; washed five times with 50 mM imidazole, eluted with 500 mM imidazole; immunoblot; only the target purified
# His x 6 tagged ClpC1 = His x 6 tagged ClpC1 (UniProt A0R574); assay: as above
binder,measurement,setting,value
B1,binding,His x 6 tagged ClpX,no binding
same,binding,His x 6 tagged ClpC1,binds
